For orientation: AC50 means the midpoint of the concentration-response curve, whichever way the signal moves.

56 compounds from PubChem BioAssay AID1487 (National Center for Advancing Translational Sciences (NCATS), 2009) can be followed below.

The assay in a line: qHTS Assay for Modulators of Lamin A Splicing. The note with it: HeLa LMNA splicing GFP/RFP minigene ratio, 48 h. The gist of the method:
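S3 HeLa stable clones carrying a lamin A-EGFP splicing minigene plus DsRed2 were seeded at 600 cells/well in Opti-MEM with 2% FBS, pin-dosed and incubated 48 h at 37°C. Acumen cytometry (488 nm) gave the GFP/RFP total-intensity ratio.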
A general note: In qHTS, concentration-response curves come from the screen itself.

Where [1] appears, read: measured here: RFP viability control channel.
Setting [2] is: measured here: GFP splicing reporter channel.

The list shows a part of the results. These are further read-outs of the screen, such as a control signal, another cell line or another target. No call is given for them. Most of these compounds were active or inconclusive in the main read-out, so they are no random draw. The note in brackets gives the kind of curve behind each potency; many fits are weak.

For the compound `O=C(Nc1ccc(C(=O)O)cc1)/C(=C\c1ccco1)NC(=O)c1ccccc1`, the half-maximal activity concentration (AC50) under setting [1] is 0.178 µM [falling, full curve].

Turning to `Cc1c(O)ccc(C(=O)CN2CCN(Cc3ccc4c(c3)OCO4)CC2)c1O`, the AC50 runs as follows: under setting [2], 11.2 µM [rising, partial curve]; under setting [1], 14.1 µM [rising, partial curve].

With `O=C1/C(=C/c2cccnc2)SC(=S)N1C1CCS(=O)(=O)C1` (stereo not given), the AC50 under setting [2] is 25.1 µM [falling, single point].

For `N#C/C(=C\N1CCN(Cc2ccc3c(c2)OCO3)CC1)c1nc2ccccc2s1`, the AC50 under setting [1] was 35.5 µM [rising, single point].

With `O=[N+]([O-])c1cc2c(cc1/C=N/NS(=O)(=O)c1ccc(Br)cc1)OCO2`, the AC50 under setting [1] was 3.16 µM [rising, full curve, poor fit].

On to `COC(=O)CNC(c1ccccc1)c1cc(Br)ccc1NC(=O)CCN1CCOCC1` (stereo not given), for which the half-maximal activity concentration (AC50) runs as follows: under setting [2], 15.8 µM [falling, partial curve]; under setting [1], 3.16 µM [falling, partial curve].

Regarding `CCOc1ccc2c(c1)c(N=O)c(O)n2C`, the AC50 under setting [1] is 15.8 µM [rising, partial curve, poor fit].

Turning to `CC(C)CC(=O)NC(=S)N1CCN(c2ccc([N+](=O)[O-])cc2Cl)CC1`, the AC50 under setting [2] was 11.2 µM [rising, single point] and the AC50 under setting [1] was 17.8 µM [rising, single point].

For the compound `Cc1ccc(S(=O)(=O)N(CC(=O)NC2CCCC2)c2cccc(C)c2)cc1`, under setting [2], the AC50 was 35.5 µM [rising, single point].

On to `Cc1nc2ccccn2c1C(=O)/C=C/c1ccc(F)cc1`, for which the AC50 runs as follows: under setting [2], 7.08 µM [falling, partial curve]; under setting [1], 17.8 µM [falling, partial curve].

For `CN(CC(=O)Nc1nc2ccc(F)cc2s1)S(=O)(=O)c1ccc(Cl)cc1`, under setting [1], the AC50 was 31.6 µM [rising, single point].

Turning to `COc1cccc(Nc2ncc3nc(-c4ccccc4)c(=O)n(C)c3n2)c1`, the AC50 under setting [1] is 14.1 µM [falling, partial curve, poor fit].

Consider `C/C(=N\NC(=O)c1cccc(Br)c1)c1cccc(NC(=O)c2ccc(C)o2)c1`, for which the AC50 runs as follows: under setting [2], 0.355 µM [rising, partial curve, poor fit]; under setting [1], 0.891 µM [rising, full curve, poor fit].

With `OC(CNc1ccccc1)Cn1ccc2ccccc21` (stereo not given), the AC50 under setting [2] is 0.447 µM [falling, partial curve, poor fit] and the AC50 under setting [1] is 2 µM [falling, partial curve, poor fit].

`COc1ccc(C(=O)Nc2ccc(S(=O)(=O)NC(C)C)cc2)cc1`: the half-maximal activity concentration (AC50) under setting [1] is 5.01 µM [rising, partial curve, poor fit].

With `COc1ccc(Nc2oc(COc3ccccc3OC)nc2C#N)cc1`, the concentration at half-maximal activity (AC50) under setting [1] was 0.0708 µM [rising, full curve, poor fit].

As to `C/C(=C\CO)CCC(C)CCCC(C)CCCC(C)C` (stereo not given), under setting [2], the AC50 is 14.1 µM [rising, single point].

With `CSc1nc(C)cc(SCC(=O)N/N=C/c2ccccc2)n1`, the AC50 under setting [2] was 35.5 µM [rising, single point] and the AC50 under setting [1] was 31.6 µM [rising, single point].

As for `COc1ccc(C2CC(=O)c3sc(NC(C)=O)nc3C2)cc1` (stereo not given), the AC50 is 10 µM [rising, partial curve, poor fit] under setting [2] and 11.2 µM [rising, partial curve, poor fit] under setting [1].

For the compound `Cc1cc(C)c(NC(=O)CCn2nnc3ccccc32)c(C)c1`, the AC50 under setting [2] is 1.41 µM [rising, partial curve].

For the compound `CCn1c(/C=N/c2nc3ccccc3n2C)nc2ccccc21`, under setting [2], the AC50 was 35.5 µM [rising, single point].

`Cn1c(=O)cc(SCC(=O)Nc2cccnc2)c2ccccc21`: the half-maximal activity concentration (AC50) was 35.5 µM [rising, single point] under setting [2] and 35.5 µM [rising, single point] under setting [1].

Take `CCC(=O)c1cc(F)c(N2CCN(C(=O)Cc3ccccc3)CC2)cc1C`: the AC50 under setting [1] is 10 µM [rising, partial curve].

As for `Cc1ccc(N2CC(C(=O)Nc3cc(C)ccc3F)CC2=O)cc1` (stereo not given), the AC50 was 15.8 µM [rising, single point] under setting [2] and 14.1 µM [rising, single point] under setting [1].

Turning to `CCn1c2ccccc2c2cc(NC(=O)COC(=O)C3CCC(=O)N3)ccc21` (stereo not given), the concentration at half-maximal activity (AC50) under setting [1] is 5.01 µM [rising, full curve].

With `C(=C/c1ccccc1)/CN1CCN(C(c2ccccc2)c2ccccc2)CC1`, the AC50 is, setting by setting: under setting [2], 0.0355 µM [falling, full curve, poor fit]; under setting [1], 0.158 µM [falling, single point].

Take `CCOc1ccc(CC(=O)NNC(=O)NC2CCCCC2)cc1`: the concentration at half-maximal activity (AC50) was 0.0562 µM [rising, full curve, poor fit] under setting [2] and 4.47 µM [rising, partial curve, poor fit] under setting [1].

Turning to `O=C(COc1ccc(C(=O)c2ccccc2)cc1)NC1CCCCCC1`, the AC50 under setting [2] was 0.794 µM [rising, partial curve] and the AC50 under setting [1] was 14.1 µM [rising, partial curve].

Regarding `CCOC(=O)c1c(C)[nH]c(C)c1S(=O)(=O)N1CCCC(C(=O)N2CCN(c3cc(C)ccc3C)CC2)C1` (stereo not given), the AC50 is, setting by setting: under setting [2], 10 µM [falling, partial curve]; under setting [1], 14.1 µM [falling, single point].

As for `COc1ccc(NC(=O)C2CCN(S(=O)(=O)c3cccc4cccnc34)CC2)cc1OC`, the AC50 under setting [1] is 7.94 µM [rising, partial curve, poor fit].

For `Cn1c2ccccc2c2ncn(CCC3=CCCCC3)c(=O)c21`, the AC50 under setting [1] was 35.5 µM [rising, partial curve, poor fit].

On to `CCc1ccc(NC(=O)c2ccc(F)c(S(=O)(=O)NCC3COc4ccccc4O3)c2)cc1` (stereo not given), for which the AC50 under setting [1] was 35.5 µM [rising, single point].

`CCOc1cccc(C(=O)Nc2cccc(C(=O)NC(C)(C)C)c2)c1`: under setting [1], the AC50 is 28.2 µM [rising, partial curve].

As for `FC(F)(F)c1cc(CO[C@H]2CCCN[C@H]2c2ccccc2)cc(C(F)(F)F)c1`, the AC50 under setting [2] was 22.4 µM [falling, partial curve, poor fit] and the AC50 under setting [1] was 35.5 µM [falling, partial curve, poor fit].

Take `COc1ccc(NC2c3ccccc3C(=O)N2c2cccnc2)cc1Cl` (stereo not given): under setting [1], the AC50 was 12.6 µM [rising, partial curve].

In the case of `CCOc1ccc(C(=O)CSCCC(=O)O)cc1`, the AC50 under setting [2] is 1.26 µM [rising, full curve, poor fit].

For `CC1=C(C)/C(=N\OS(=O)(=O)c2ccc(C)cc2)C=CC1=O`, the AC50 under setting [1] is 35.5 µM [rising, single point].

Regarding `O=C(CSc1nnnn1-c1ccc(O)cc1)Nc1cccc(S(=O)(=O)N2CCCC2)c1`, the AC50 under setting [1] was 35.5 µM [rising, single point].

As for `Cc1ccc(NCCC(=O)c2ccc(Br)cc2)cc1`, the AC50 under setting [2] was 35.5 µM [falling, single point].

As for `O=C1Nc2ccccc2Oc2cc(Oc3ccc(Cl)cc3)ccc21`, under setting [1], the concentration at half-maximal activity (AC50) is 35.5 µM [falling, partial curve, poor fit].

As to `C=CCn1c(C2CC2)n[nH]c1=S`, the AC50 under setting [2] is 3.98 µM [falling, partial curve].

Consider `CCN(CC)S(=O)(=O)c1cccc(C(=O)NC(C(=O)NC2=NCCS2)C(C)C)c1` (stereo not given), for which the AC50 under setting [1] was 10 µM [rising, partial curve].

Take `Cc1ccc(Nc2c([N+](=O)[O-])c(=O)oc3ccccc23)cc1C`: the AC50 under setting [1] was 5.62 µM [falling, single point].

On to `Cc1cc(NCC(c2ccccc2)c2ccccc2)n2ncnc2n1`, for which the AC50 under setting [2] is 14.1 µM [falling, partial curve, poor fit] and the AC50 under setting [1] is 4.47 µM [falling, full curve].

For `CC(C)(C)C1=CC(=O)C(=O)C(C(C)(C)C)=C1`, the AC50 under setting [2] was 35.5 µM [rising, single point].

As to `Cc1c(C2N3CC4(C)CN2CC(C)(C3)C4=O)c2ccccc2n1C` (stereo not given), the AC50 under setting [1] is 2 µM [falling, partial curve, poor fit].

In the case of `COc1ccc(NC(=O)N2CCN(c3nc(-c4cccc(OC)c4)cs3)CC2)cc1`, the AC50 under setting [1] is 17.8 µM [rising, partial curve, poor fit].

Consider `CNC(=O)c1ccccc1S(=O)(=O)c1ccccc1C#N`, for which, under setting [2], the AC50 was 3.16 µM [rising, single point].

Take `CCc1ccc2nc(N3CCN(C(=O)c4ccco4)CC3)sc2c1`: under setting [2], the AC50 is 0.708 µM [falling, full curve].

For `CCOc1cc(C(N)=O)cc(Cl)c1OCC`, the AC50 under setting [1] was 0.00891 µM [falling, full curve, poor fit].

Turning to `O=C(OC(c1ccc(NS(=O)(=O)c2ccccc2)cc1)(C(F)(F)F)C(F)(F)F)c1ccccc1`, the AC50 reads like this: under setting [2], 14.1 µM [rising, single point]; under setting [1], 12.6 µM [rising, partial curve].

Turning to `C=CCN1C(=O)/C(=C/c2ccccc2)S/C1=N/c1nccs1`, the concentration at half-maximal activity (AC50) runs as follows: under setting [2], 12.6 µM [rising, partial curve, poor fit]; under setting [1], 22.4 µM [rising, partial curve, poor fit].

Consider `Cc1ccc(C)c(S(=O)(=O)Nc2ccc3sc(C)nc3c2)c1`, for which the AC50 is 17.8 µM [rising, single point] under setting [2] and 35.5 µM [rising, single point] under setting [1].

Turning to `Cc1ccc(C)c(N2CCN(C(=O)c3c4c(nc5ccccc35)C(=O)N(C3CCCCC3)C4)CC2)c1`, the AC50 under setting [2] is 0.0126 µM [falling, full curve, poor fit].

`COc1ccc(-n2nnc3c(=O)n(Cc4ccccc4C)cnc32)cc1`: the AC50 under setting [1] is 0.251 µM [falling, full curve].

Turning to `COc1ccc(C2CC(c3ccccc3)=NN2C(=O)CSc2ncn[nH]2)cc1` (stereo not given), the AC50 under setting [1] is 0.126 µM [rising, full curve, poor fit].
